The list shows a part of the results.
Key:
Test in all cases: log2 fold change, soluble protein after heating vs DMSO (PISA); higher = thermal stabilisation; K562 lysate, 10 uM; active = over 0.2 and 3.5 SD of the protein, either way, in both replicates (recomputed)
[1] = compound: O=C1NC(=O)C(c2cnc3ccccn23)=C1c1cn2c3c(cc(F)cc13)CN(C(=O)N1CCCCC1)CC2
How it was run: (§1)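 The values are log-two fold changes in thermal stability compared with solvent controls and come from duplicates. They were obtained by TMTpro 16plex LC-MS/MS, with channel sums equalised, on the supernatant after 21,000xg for 90 min. That supernatant came from crude K562 extract at 1 mg/mL protein treated with 10 μM compound for 30 min, heated for 3 min across 48°C-58°C, pooled and brought to 0.5% NP-40 at 4°C.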

By UniProt entry, the sequences of proteins in these tests, tags left out. Where a name states a change or a piece, a line headed by the entry shows the natural chain unless it says otherwise.
UniProt Q9BZZ5: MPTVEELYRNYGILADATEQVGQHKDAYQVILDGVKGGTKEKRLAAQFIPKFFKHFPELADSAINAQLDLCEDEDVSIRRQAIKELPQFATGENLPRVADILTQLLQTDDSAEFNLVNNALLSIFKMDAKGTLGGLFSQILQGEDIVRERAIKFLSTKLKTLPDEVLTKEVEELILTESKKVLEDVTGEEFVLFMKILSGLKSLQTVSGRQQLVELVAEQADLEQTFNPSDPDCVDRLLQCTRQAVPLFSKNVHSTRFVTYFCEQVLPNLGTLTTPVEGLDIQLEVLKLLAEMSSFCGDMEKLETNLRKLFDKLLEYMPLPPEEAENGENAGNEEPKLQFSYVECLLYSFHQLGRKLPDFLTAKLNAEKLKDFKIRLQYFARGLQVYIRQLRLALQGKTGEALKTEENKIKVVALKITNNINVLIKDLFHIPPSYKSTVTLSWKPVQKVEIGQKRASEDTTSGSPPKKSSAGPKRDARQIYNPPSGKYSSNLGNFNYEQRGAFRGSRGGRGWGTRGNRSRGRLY
UniProt Q53QZ3: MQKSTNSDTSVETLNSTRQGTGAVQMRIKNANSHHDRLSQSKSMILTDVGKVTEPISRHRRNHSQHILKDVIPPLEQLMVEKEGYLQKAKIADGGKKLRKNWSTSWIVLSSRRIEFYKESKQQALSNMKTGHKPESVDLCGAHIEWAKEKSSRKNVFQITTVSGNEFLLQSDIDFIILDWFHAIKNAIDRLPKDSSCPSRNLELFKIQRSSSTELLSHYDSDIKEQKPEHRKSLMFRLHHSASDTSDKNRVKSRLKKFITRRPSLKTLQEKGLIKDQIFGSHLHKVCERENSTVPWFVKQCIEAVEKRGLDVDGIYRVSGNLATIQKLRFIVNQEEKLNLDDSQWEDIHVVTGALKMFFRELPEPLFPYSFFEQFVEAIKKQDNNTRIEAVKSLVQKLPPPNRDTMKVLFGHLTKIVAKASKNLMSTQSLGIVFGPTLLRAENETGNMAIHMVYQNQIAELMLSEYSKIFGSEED
UniProt P05067, whole entry, looked up: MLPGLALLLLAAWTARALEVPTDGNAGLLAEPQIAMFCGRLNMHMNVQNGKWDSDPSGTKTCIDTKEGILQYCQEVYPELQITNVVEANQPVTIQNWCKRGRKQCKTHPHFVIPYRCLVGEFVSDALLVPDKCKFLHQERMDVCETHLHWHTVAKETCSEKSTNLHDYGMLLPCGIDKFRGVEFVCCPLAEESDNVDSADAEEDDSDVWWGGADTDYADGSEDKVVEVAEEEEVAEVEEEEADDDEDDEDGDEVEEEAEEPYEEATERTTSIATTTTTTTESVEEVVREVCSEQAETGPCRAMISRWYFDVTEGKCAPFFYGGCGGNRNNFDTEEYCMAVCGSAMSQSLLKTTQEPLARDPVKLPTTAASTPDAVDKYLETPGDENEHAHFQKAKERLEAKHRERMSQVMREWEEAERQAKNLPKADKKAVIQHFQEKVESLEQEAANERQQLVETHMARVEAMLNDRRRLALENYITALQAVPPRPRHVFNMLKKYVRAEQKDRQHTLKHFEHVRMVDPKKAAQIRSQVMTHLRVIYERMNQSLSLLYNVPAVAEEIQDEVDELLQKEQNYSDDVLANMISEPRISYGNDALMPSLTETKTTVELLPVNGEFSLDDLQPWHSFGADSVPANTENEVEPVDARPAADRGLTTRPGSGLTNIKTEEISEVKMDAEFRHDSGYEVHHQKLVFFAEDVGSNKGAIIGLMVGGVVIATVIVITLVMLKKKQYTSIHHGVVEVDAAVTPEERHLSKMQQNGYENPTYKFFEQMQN
UniProt Q9Y576: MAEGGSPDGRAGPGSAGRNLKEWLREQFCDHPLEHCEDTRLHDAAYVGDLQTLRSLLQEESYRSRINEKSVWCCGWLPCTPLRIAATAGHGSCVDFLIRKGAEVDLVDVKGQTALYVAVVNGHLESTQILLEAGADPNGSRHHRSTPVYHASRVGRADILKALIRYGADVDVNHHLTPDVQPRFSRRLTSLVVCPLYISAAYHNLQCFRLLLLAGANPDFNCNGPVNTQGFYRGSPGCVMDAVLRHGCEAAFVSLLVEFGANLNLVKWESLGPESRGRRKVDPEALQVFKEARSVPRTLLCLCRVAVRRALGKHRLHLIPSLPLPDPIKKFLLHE
UniProt Q9Y689: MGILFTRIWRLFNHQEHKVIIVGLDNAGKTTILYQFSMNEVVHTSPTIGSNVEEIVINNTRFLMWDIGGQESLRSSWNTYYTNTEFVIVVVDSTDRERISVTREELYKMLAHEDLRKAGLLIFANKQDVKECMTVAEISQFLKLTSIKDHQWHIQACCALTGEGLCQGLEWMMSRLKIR
UniProt Q96BI3, whole entry, looked up: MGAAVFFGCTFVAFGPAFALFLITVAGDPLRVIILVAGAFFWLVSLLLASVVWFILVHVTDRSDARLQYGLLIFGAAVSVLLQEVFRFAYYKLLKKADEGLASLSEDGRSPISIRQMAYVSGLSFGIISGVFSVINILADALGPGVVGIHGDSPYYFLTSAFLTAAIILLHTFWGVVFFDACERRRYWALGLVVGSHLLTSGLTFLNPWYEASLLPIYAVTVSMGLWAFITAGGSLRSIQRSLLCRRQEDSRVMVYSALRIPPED
UniProt P52565: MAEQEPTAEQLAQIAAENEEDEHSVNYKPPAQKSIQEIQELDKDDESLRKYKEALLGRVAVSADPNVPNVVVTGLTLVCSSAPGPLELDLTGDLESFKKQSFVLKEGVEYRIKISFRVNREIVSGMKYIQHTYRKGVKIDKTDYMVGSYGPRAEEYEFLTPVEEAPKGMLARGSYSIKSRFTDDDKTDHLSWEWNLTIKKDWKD
UniProt Q5VV41: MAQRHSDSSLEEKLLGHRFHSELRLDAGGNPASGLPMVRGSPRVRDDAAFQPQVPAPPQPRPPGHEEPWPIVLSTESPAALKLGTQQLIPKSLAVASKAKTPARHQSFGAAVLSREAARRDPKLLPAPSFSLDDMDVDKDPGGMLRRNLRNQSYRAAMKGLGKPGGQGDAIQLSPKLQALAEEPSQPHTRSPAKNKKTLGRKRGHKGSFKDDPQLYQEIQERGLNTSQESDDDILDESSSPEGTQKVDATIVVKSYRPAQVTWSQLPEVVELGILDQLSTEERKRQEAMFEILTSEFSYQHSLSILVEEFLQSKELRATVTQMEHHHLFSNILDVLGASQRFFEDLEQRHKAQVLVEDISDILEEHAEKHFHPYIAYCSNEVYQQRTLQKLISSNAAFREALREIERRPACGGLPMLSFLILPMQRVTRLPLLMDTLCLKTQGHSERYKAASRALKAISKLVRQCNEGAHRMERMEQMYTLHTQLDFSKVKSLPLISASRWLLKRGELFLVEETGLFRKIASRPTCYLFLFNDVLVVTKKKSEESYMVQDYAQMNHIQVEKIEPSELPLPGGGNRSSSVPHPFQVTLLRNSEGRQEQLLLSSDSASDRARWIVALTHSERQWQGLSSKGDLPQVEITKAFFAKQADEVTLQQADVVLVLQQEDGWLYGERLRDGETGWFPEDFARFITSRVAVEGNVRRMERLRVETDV
UniProt O43182: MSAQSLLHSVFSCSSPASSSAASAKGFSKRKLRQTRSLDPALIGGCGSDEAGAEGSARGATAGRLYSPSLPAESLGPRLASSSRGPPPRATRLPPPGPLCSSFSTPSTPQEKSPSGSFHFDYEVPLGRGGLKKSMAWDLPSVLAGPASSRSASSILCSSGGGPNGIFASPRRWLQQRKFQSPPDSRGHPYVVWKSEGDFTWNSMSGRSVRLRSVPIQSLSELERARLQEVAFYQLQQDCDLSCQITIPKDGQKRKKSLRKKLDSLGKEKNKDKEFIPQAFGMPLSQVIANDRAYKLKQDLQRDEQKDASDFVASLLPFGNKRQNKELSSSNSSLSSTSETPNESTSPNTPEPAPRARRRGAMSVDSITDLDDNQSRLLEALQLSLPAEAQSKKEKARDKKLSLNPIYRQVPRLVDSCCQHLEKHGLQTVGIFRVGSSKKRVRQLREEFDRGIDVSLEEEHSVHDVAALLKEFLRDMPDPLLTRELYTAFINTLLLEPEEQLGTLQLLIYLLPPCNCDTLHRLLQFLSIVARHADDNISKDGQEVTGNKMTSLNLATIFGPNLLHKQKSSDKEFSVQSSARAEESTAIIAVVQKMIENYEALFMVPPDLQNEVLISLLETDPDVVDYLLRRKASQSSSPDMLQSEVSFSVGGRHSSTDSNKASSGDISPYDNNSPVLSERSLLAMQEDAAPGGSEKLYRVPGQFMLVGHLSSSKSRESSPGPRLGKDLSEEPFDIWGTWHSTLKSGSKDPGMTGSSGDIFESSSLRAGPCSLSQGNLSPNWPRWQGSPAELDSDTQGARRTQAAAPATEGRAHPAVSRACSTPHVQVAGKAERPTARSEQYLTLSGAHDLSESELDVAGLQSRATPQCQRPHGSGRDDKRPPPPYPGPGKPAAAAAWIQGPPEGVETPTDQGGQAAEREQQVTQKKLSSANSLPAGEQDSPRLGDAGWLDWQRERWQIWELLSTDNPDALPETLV
UniProt Q9NUS5: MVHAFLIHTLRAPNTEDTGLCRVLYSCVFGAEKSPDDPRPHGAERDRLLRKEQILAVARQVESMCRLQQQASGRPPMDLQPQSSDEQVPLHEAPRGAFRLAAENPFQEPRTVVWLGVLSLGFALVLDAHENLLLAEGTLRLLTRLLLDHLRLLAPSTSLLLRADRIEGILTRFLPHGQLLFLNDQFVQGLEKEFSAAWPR
UniProt P02656: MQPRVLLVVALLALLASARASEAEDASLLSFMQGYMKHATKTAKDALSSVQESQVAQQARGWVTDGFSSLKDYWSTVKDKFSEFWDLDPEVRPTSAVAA
UniProt Q9NZN5: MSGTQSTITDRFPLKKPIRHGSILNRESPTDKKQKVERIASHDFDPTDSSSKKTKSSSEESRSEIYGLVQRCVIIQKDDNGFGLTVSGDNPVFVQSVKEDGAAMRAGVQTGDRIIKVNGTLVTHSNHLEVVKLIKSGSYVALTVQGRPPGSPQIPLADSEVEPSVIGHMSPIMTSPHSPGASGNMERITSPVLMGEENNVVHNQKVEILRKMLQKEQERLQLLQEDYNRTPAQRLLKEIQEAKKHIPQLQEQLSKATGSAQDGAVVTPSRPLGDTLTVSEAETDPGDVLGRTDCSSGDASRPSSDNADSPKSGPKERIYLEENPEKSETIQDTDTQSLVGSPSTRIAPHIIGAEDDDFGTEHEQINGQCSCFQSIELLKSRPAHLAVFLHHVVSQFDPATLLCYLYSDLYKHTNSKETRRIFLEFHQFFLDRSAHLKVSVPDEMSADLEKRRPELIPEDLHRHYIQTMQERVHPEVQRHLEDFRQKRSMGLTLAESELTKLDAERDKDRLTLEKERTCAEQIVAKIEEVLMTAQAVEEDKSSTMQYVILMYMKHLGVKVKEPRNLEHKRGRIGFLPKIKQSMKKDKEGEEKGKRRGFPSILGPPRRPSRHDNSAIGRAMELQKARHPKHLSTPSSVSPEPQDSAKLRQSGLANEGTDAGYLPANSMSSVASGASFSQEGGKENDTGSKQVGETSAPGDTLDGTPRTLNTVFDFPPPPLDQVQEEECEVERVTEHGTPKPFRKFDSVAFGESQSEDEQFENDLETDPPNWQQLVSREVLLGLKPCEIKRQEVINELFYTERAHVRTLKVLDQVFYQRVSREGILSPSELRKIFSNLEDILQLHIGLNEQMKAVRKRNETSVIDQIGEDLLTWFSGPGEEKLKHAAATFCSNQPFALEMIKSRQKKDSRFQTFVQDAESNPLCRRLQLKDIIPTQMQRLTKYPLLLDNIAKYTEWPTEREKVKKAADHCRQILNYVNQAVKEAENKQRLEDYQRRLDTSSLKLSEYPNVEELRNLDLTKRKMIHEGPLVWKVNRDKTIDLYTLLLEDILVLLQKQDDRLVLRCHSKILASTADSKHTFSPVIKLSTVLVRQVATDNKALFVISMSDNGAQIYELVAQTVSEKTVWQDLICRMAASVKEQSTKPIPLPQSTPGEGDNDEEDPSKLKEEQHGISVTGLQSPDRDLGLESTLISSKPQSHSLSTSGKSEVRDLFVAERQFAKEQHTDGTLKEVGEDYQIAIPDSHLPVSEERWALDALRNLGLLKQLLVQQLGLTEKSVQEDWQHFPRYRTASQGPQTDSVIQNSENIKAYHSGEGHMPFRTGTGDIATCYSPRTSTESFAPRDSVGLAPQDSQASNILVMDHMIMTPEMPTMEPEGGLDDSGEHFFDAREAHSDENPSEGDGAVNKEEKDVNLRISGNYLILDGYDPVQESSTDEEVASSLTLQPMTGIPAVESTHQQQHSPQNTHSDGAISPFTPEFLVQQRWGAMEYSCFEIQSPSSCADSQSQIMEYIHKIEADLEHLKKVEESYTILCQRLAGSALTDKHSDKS
UniProt Q9H6L4: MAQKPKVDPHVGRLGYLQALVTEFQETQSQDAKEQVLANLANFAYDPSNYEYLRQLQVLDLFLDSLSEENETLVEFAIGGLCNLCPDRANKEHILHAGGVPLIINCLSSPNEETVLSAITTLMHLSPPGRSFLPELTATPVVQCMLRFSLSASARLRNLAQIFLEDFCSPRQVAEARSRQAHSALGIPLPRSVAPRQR

[2] = compound: c1cn2cc(-c3ccc4cn[nH]c4c3)nc(Nc3ccc(N4CCOCC4)cc3)c2n1 [entospletinib]
How it was run: as §1

[3] = compound: O=C(CCCCCCC(=O)Nc1ccccc1)NO [vorinostat]
How it was run: as §1

[4] = compound: O=C(O)c1ccc2c(c1)nc(Nc1cccc(Cl)c1)c1ccncc12 [silmitasertib]
How it was run: as §1

[5] = compound: NCC(=O)Nc1ccc(-n2nc(C(F)(F)F)cc2-c2ccc3c(ccc4ccccc43)c2)cc1
How it was run: as §1

Question: With API5 isoform 1 (UniProt Q9BZZ5) as the target, how does the log2 fold change [1] read?
Answer: Its log2 fold change is inactive: -0.124.

Question: For ARHGAP15 (UniProt Q53QZ3), which log2 fold change [1] is on record?
Answer: The log2 fold change was inactive: -0.215.

Question: What about the log2 fold change [2] of the same target?
Answer: Its log2 fold change is inactive: 0.006.

Question: For APP (UniProt P05067), which log2 fold change [3] is on record?
Answer: Its log2 fold change is inactive: 0.086.

Question: And the log2 fold change [4]?
Answer: The log2 fold change was inactive: 0.086.

Question: And the log2 fold change [1]?
Answer: The log2 fold change was inactive: -0.067.

Question: And the log2 fold change [2]?
Answer: The log2 fold change was inactive: 0.209.

Question: For ASB1 (UniProt Q9Y576), which log2 fold change [5] is on record?
Answer: Its log2 fold change is inactive: -0.151.

Question: And the log2 fold change [1]?
Answer: The log2 fold change was inactive: -0.027.

Question: What about the log2 fold change [2] of the same target?
Answer: Its log2 fold change is inactive: 0.048.

Question: With ARL6 isoform 2 (UniProt Q9H0F7) as the target, how does the log2 fold change [3] read?
Answer: The log2 fold change was inactive: -0.237.

Question: And the log2 fold change [4]?
Answer: The log2 fold change was inactive: 0.104.

Question: What about the log2 fold change [1] of the same target?
Answer: Its log2 fold change is inactive: -0.185.

Question: Which results are given for AP5B1 (UniProt Q2VPB7)?
Answer: log2 fold change [3]: inactive: -0.062; log2 fold change [4]: inactive: 0.044; log2 fold change [1]: inactive: -0.094; log2 fold change [2]: inactive: 0.022

Question: How did the log2 fold change [5] turn out when ARL5A (UniProt Q9Y689) was run?
Answer: The log2 fold change was inactive: -0.119.

Question: What about the log2 fold change [1] of the same target?
Answer: Its log2 fold change is inactive: 0.057.

Question: What about the log2 fold change [2] of the same target?
Answer: Its log2 fold change is inactive: 0.112.

Question: For ARHGAP24 (UniProt Q8N264), which log2 fold change [5] is on record?
Answer: The log2 fold change was inactive: 0.09.

Question: What about the log2 fold change [3] of the same target?
Answer: The log2 fold change was inactive: -0.026.

Question: What about the log2 fold change [4] of the same target?
Answer: Its log2 fold change is inactive: -0.024.

Question: And the log2 fold change [2]?
Answer: The log2 fold change was inactive: 0.016.

Question: With APH1A (UniProt Q96BI3) as the target, how does the log2 fold change [3] read?
Answer: Its log2 fold change is inactive: 0.098.

Question: What about the log2 fold change [4] of the same target?
Answer: Its log2 fold change is inactive: -0.061.

Question: What about the log2 fold change [1] of the same target?
Answer: Its log2 fold change is inactive: -0.017.

Question: What about the log2 fold change [2] of the same target?
Answer: The log2 fold change was inactive: 0.01.

Question: ARHGAP39 isoform 2 (UniProt Q9C0H5) was tested. Which log2 fold change [1] did it give?
Answer: Its log2 fold change is inactive: 0.115.

Question: How did the log2 fold change [5] turn out when ARHGDIA (UniProt P52565) was run?
Answer: The log2 fold change was inactive: 0.013.

Question: What about the log2 fold change [3] of the same target?
Answer: Its log2 fold change is inactive: 0.123.

Question: What about the log2 fold change [4] of the same target?
Answer: The log2 fold change was inactive: -0.035.

Question: And the log2 fold change [1]?
Answer: Its log2 fold change is inactive: -0.007.

Question: What about the log2 fold change [2] of the same target?
Answer: The log2 fold change was inactive: 0.012.

Question: What does the source list for ARHGEF16 (UniProt Q5VV41)?
Answer: log2 fold change [3]: inactive: -0.182; log2 fold change [4]: inactive: 0.039; log2 fold change [2]: inactive: 0.175

Question: ARHGEF2 (UniProt V9GYF0) was tested. Which log2 fold change [5] did it give?
Answer: The log2 fold change was inactive: 0.157.

Question: And the log2 fold change [2]?
Answer: Its log2 fold change is inactive: 0.081.

Question: What does the source list for ARHGAP6 (UniProt O43182)?
Answer: log2 fold change [5]: inactive: 0.058; log2 fold change [3]: active: -0.346; log2 fold change [4]: inactive: 0.089; log2 fold change [1]: inactive: 0.025; log2 fold change [2]: inactive: 0.004

Question: Which log2 fold change [3] does the source give for AP5S1 (UniProt Q9NUS5) here?
Answer: The log2 fold change was inactive: 0.075.

Question: And the log2 fold change [4]?
Answer: Its log2 fold change is inactive: -0.299.

Question: And the log2 fold change [1]?
Answer: The log2 fold change was inactive: 0.044.

Question: And the log2 fold change [2]?
Answer: Its log2 fold change is inactive: 0.199.

Question: How did the log2 fold change [1] turn out when APOH (UniProt P02749) was run?
Answer: Its log2 fold change is inactive: 0.016.

Question: How did the log2 fold change [2] turn out when APOL1 isoform 2 (UniProt O14791) was run?
Answer: The log2 fold change was inactive: 0.086.

Question: Which log2 fold change [2] does the source give for ARMC8 (UniProt C9JAA7) here?
Answer: The log2 fold change was inactive: -0.025.

Question: How did the log2 fold change [5] turn out when APOC3 (UniProt P02656) was run?
Answer: The log2 fold change was inactive: 0.095.

Question: And the log2 fold change [1]?
Answer: The log2 fold change was inactive: -0.124.

Question: What about the log2 fold change [2] of the same target?
Answer: Its log2 fold change is inactive: -0.132.

Question: ARHGEF12 isoform 2 (UniProt Q9NZN5) was tested. Which log2 fold change [1] did it give?
Answer: Its log2 fold change is inactive: 0.074.

Question: And the log2 fold change [2]?
Answer: The log2 fold change was inactive: 0.068.

Question: What does the source list for ARSK (UniProt Q6UWY0)?
Answer: log2 fold change [5]: inactive: 0.167; log2 fold change [3]: inactive: 0.14; log2 fold change [4]: inactive: -0.005; log2 fold change [2]: inactive: -0.099

Question: For ART4 (UniProt Q93070), which log2 fold change [5] is on record?
Answer: Its log2 fold change is inactive: 0.014.

Question: And the log2 fold change [2]?
Answer: The log2 fold change was inactive: -0.064.

Question: How did the log2 fold change [5] turn out when ARMCX5 (UniProt Q6P1M9) was run?
Answer: Its log2 fold change is inactive: -0.233.

Question: And the log2 fold change [3]?
Answer: The log2 fold change was inactive: 0.102.

Question: What about the log2 fold change [4] of the same target?
Answer: Its log2 fold change is inactive: 0.013.

Question: And the log2 fold change [2]?
Answer: Its log2 fold change is inactive: 0.088.

Question: APPBP2 (UniProt Q92624) was tested. Which log2 fold change [3] did it give?
Answer: The log2 fold change was inactive: -0.077.

Question: And the log2 fold change [4]?
Answer: Its log2 fold change is inactive: -0.042.

Question: And the log2 fold change [1]?
Answer: Its log2 fold change is inactive: 0.028.

Question: With ARMC7 (UniProt Q9H6L4) as the target, how does the log2 fold change [5] read?
Answer: Its log2 fold change is inactive: -0.173.

Question: And the log2 fold change [1]?
Answer: Its log2 fold change is inactive: 0.091.
